In PMC8887472 one finds binding data, which are given here for one substance.

Protein sequences, listed by entry. Tags and fused reporters are not part of them.
UniProt P0CAP2: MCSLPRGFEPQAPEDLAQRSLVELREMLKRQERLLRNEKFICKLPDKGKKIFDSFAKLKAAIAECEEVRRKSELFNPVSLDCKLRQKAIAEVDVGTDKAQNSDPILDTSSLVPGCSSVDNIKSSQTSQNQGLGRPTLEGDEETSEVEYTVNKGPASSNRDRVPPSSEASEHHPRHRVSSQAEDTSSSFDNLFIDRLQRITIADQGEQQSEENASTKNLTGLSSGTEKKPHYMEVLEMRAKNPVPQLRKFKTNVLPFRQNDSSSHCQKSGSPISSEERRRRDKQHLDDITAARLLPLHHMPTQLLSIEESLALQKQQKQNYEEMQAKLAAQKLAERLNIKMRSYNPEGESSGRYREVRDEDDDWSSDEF
UniProt Q8IXW5: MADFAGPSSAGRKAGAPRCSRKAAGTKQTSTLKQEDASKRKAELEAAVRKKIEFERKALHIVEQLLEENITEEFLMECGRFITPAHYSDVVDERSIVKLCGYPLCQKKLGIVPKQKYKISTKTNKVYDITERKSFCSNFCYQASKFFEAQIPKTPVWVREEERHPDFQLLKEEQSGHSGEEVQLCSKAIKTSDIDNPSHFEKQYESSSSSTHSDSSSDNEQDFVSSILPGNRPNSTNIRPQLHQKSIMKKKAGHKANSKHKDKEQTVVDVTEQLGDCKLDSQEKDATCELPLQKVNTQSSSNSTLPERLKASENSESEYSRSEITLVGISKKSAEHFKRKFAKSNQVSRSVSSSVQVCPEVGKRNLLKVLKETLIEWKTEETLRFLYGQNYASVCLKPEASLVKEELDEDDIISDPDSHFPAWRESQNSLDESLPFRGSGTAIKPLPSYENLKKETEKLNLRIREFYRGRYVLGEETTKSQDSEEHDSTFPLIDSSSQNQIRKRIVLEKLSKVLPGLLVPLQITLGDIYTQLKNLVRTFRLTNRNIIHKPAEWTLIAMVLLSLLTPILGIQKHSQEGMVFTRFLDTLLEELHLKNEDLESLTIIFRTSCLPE

The target of this test is eGFP-TEV-Gdown1 (human (endogenous in HAP1)) (UniProt P0CAP2). The experiment in a line: co-IP; GFP-Trap agarose IP from clarified lysate of eGFP-TEV-Gdown1 HAP1 cells (20 mM Tris pH 7.8, 150 mM NaCl, 0.5% IGEPAL CA-360), 1 h at 4°C, three washes; silver staining and RPAP2 western blot. In general terms: Immunoblotting shows a protein as a band on a membrane.

These are yes or no findings as the source states them, for the method shown. Binding seen in cells or lysates may run through a third protein. Some results given as binding are weak or reduced against the parent protein; the word gives no strength.

For RPAP2 (from UniProt Q8IXW5 1-612), the binding entry is “binds”.
